No constants are given. Whether binding was seen depends on the method and setting. Binding seen in cells or lysates may run through a third protein. Here binding means that the protein was enriched with, or labelled near, the bait; the list need not be complete.
Target: human CAP1 whose carboxyl-terminal end was conjugated with the Fc region of mouse immunoglobulin (human) (UniProt Q01518)
Test: affinity purification with mass spectrometry; THP-1 lysate incubated with purified CAP1-mFc (control mFc), pulled down with mFc-specific beads, LC-MS/MS, SAINT scoring; only the target purified

Sequences of proteins named here, by UniProt entry; tags and fusion partners are left off. A change or cut given only in a name is not applied to a line headed by its entry.
UniProt Q01518: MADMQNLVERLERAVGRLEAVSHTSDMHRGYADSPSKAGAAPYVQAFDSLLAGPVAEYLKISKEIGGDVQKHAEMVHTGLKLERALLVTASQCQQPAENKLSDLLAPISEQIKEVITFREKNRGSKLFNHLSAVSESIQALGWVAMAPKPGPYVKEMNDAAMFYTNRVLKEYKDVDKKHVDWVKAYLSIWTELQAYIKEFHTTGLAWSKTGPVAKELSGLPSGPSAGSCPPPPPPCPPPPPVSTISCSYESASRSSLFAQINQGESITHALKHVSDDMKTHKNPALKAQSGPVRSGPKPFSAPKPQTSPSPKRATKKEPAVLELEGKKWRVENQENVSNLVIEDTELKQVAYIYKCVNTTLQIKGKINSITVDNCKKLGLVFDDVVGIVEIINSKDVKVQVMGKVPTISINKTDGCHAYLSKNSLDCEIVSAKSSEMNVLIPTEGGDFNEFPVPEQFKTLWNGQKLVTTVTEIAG
UniProt Q05655: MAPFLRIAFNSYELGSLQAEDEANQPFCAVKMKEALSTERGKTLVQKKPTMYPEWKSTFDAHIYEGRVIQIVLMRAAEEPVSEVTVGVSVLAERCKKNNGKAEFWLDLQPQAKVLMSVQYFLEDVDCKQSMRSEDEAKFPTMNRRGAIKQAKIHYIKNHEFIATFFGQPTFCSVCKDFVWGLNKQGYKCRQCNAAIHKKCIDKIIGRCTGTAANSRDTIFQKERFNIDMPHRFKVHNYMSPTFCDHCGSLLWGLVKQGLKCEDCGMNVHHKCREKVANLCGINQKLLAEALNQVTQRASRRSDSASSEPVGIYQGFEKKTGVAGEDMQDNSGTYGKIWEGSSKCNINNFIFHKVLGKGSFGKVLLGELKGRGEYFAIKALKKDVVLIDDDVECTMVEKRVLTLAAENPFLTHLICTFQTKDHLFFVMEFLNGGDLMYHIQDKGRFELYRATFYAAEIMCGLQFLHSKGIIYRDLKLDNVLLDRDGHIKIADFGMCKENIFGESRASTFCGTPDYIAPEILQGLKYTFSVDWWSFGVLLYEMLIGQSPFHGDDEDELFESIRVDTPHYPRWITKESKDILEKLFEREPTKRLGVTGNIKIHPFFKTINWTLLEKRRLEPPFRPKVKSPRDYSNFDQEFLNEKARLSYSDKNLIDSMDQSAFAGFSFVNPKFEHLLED

binding: binds
Substance: PKCδ, endogenous in THP-1 monocytes (from UniProt Q05655 1-676) (enzyme)

Reference: publication PMC10981688
